According to paper PMC3510508, “Rbg1–Tma46 dimer structure reveals new functional domains and their role in polysome recruitment” (Nucleic Acids Research, 2012):
No constants are given. Whether binding was seen depends on the method and setting. For part of these data: In cells and extracts the contact can be indirect. Some entries that bind do so weakly or less than the wild type. Sequences can lack the tags named with a protein. One block for each binder: values may come before it.

What was measured:
TAP-tagged Tma46 (yeast) = molecular target: T1, TAP-tagged Tma46 (yeast) (UniProt Q12000); test: co-IP; extracts of Δrbg1 yeast expressing Tma46–TAP and HA-tagged Rbg1 variants; Tma46–TAP precipitated on IgG beads, 4°C 2 h, 150 mM NaCl; western blot of HA
T1 sequence: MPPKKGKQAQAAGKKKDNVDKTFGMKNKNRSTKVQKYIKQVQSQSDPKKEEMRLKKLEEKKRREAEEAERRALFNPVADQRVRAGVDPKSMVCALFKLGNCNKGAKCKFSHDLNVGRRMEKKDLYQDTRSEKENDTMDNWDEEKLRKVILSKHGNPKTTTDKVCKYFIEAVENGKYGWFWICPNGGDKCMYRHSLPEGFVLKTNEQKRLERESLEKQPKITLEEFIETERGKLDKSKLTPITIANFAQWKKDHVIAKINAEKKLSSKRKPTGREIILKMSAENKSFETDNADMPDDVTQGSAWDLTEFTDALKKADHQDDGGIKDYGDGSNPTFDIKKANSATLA

[1] = molecular target: T2, 6His-tagged full-length Rbg1 (yeast) (UniProt P39729); test: pull-down; N-terminally 6His-tagged Rbg1 (or variant) co-expressed with untagged Tma46 (or fragment) from an artificial operon in E. coli; purified on Ni–NTA; eluates on denaturing gel, Coomassie staining
T2 sequence: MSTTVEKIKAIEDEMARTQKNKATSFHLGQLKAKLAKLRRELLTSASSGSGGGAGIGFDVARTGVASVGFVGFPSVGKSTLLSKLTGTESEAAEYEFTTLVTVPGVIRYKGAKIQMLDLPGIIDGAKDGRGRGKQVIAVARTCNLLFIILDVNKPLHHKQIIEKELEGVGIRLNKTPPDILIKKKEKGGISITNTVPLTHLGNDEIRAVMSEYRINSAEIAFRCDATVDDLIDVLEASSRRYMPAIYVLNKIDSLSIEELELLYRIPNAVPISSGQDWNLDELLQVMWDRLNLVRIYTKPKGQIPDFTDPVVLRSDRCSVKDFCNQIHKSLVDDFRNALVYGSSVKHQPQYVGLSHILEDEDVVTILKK

[2] = molecular target: T2, 6His-tagged full-length Rbg1 (yeast); test: crystal structure; Rbg1fl–Tma46 205–345 complex, vapor diffusion at 4°C, SIRAS with selenomethionine derivative, 2.67 Å, two complexes in the asymmetric unit; both purified
[3] = molecular target: T2, 6His-tagged full-length Rbg1 (yeast); test: SEC; purified Rbg1fl–Tma46 205–345 complex on a size exclusion column at 4°C in buffer S (150 mM NaCl, 20 mM Tris pH 7.5, 2 mM DTT); both purified
TAP-tagged Rbg1 (yeast) = molecular target: T3, TAP-tagged Rbg1 (yeast) (UniProt P39729); test: co-IP; extracts of Δtma46 yeast with TAP-tagged Rbg1 and HA-Tma46 variants on a centromeric plasmid; Rbg1-TAP precipitated on IgG beads, 4°C 2 h, 150 mM NaCl; western blot of HA
T3 sequence: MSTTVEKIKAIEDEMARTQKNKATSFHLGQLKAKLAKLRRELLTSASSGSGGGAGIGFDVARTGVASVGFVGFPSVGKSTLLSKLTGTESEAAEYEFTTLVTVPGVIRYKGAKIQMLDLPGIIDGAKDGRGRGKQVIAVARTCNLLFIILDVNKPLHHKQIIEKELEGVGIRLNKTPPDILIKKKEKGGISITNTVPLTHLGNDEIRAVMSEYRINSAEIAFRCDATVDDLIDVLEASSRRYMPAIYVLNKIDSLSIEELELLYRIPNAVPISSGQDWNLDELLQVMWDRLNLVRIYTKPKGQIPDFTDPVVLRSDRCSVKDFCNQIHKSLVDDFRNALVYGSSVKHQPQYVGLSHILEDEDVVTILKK

- binding (TAP-tagged Tma46 (yeast)): binds
B1: HA-tagged Rbg1 (wild type) (enzyme, UniProt P39729 1-369)
chain: MSTTVEKIKAIEDEMARTQKNKATSFHLGQLKAKLAKLRRELLTSASSGSGGGAGIGFDVARTGVASVGFVGFPSVGKSTLLSKLTGTESEAAEYEFTTLVTVPGVIRYKGAKIQMLDLPGIIDGAKDGRGRGKQVIAVARTCNLLFIILDVNKPLHHKQIIEKELEGVGIRLNKTPPDILIKKKEKGGISITNTVPLTHLGNDEIRAVMSEYRINSAEIAFRCDATVDDLIDVLEASSRRYMPAIYVLNKIDSLSIEELELLYRIPNAVPISSGQDWNLDELLQVMWDRLNLVRIYTKPKGQIPDFTDPVVLRSDRCSVKDFCNQIHKSLVDDFRNALVYGSSVKHQPQYVGLSHILEDEDVVTILKK

- binding [1]: binds
B2: Tma46_(239–345) (Tma46Δα1) (domain or fragment, UniProt Q12000 239-345)
chain: TPITIANFAQWKKDHVIAKINAEKKLSSKRKPTGREIILKMSAENKSFETDNADMPDDVTQGSAWDLTEFTDALKKADHQDDGGIKDYGDGSNPTFDIKKANSATLA

- binding [2]: binds
- binding [3]: binds
B3: Tma46 C-terminal region (amino acids 205–345) (domain or fragment, UniProt Q12000 205-345)
chain: EQKRLERESLEKQPKITLEEFIETERGKLDKSKLTPITIANFAQWKKDHVIAKINAEKKLSSKRKPTGREIILKMSAENKSFETDNADMPDDVTQGSAWDLTEFTDALKKADHQDDGGIKDYGDGSNPTFDIKKANSATLA

- binding [1]: binds
B4: full-length Tma46 (protein, UniProt Q12000 1-345)
chain: MPPKKGKQAQAAGKKKDNVDKTFGMKNKNRSTKVQKYIKQVQSQSDPKKEEMRLKKLEEKKRREAEEAERRALFNPVADQRVRAGVDPKSMVCALFKLGNCNKGAKCKFSHDLNVGRRMEKKDLYQDTRSEKENDTMDNWDEEKLRKVILSKHGNPKTTTDKVCKYFIEAVENGKYGWFWICPNGGDKCMYRHSLPEGFVLKTNEQKRLERESLEKQPKITLEEFIETERGKLDKSKLTPITIANFAQWKKDHVIAKINAEKKLSSKRKPTGREIILKMSAENKSFETDNADMPDDVTQGSAWDLTEFTDALKKADHQDDGGIKDYGDGSNPTFDIKKANSATLA

- binding (TAP-tagged Rbg1 (yeast)): binds
B5: HA-tagged Tma46 (wild type) (protein, UniProt Q12000 1-345)
chain: MPPKKGKQAQAAGKKKDNVDKTFGMKNKNRSTKVQKYIKQVQSQSDPKKEEMRLKKLEEKKRREAEEAERRALFNPVADQRVRAGVDPKSMVCALFKLGNCNKGAKCKFSHDLNVGRRMEKKDLYQDTRSEKENDTMDNWDEEKLRKVILSKHGNPKTTTDKVCKYFIEAVENGKYGWFWICPNGGDKCMYRHSLPEGFVLKTNEQKRLERESLEKQPKITLEEFIETERGKLDKSKLTPITIANFAQWKKDHVIAKINAEKKLSSKRKPTGREIILKMSAENKSFETDNADMPDDVTQGSAWDLTEFTDALKKADHQDDGGIKDYGDGSNPTFDIKKANSATLA
